Source: PMC10135297 (Antibiotics, 2023)

Experiment: general procedure: Fmoc solid-phase peptide synthesis; Rink amide resin (200 mg, 0.46 meq/g); DCC/6-Cl-HOBt
Settings: for purity (crude or final not stated): whole synthesis, scale of the general procedure 200 mg resin, 0.46 meq/g

Row | Substance | conjugation yield (conjugation step) [%] | final HPLC purity (conjugation step, RP-HPLC) [%] | purity (crude or final not stated) (RP-HPLC) [%]
1 | CTpH(F)-(AAC-(K)-RRWQWR)4 (rctt) | 56.6 | 74.6 | 
2 | K(N3)-RLLR-NH2 |  |  | 98.2
3 | K(N3)-RRWQWR-NH2 |  |  | 83.7
